Experimental data as given in the supplement of paper PMC7125110.
± gives the standard error. Many of these values have a large error.

B1: glmS ribozyme (parent)
chain: AUAAAAGCGCCAGAACUACAGAAAUGUAGUUGACGAGGAGGAGGUUUAUCGAAUUUUCGGCGGAUGCCUCCAAA

Variants of: B1
Assay: KM; higher = weaker cofactor use; RNA array
Details: with glucosamine-6-phosphate
Outline: (§1)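 Weighted Michaelis–Menten fits across concentrations supplied kcat and KM, based on kobs from one- or two-exponential decay fits to normalised per-tile medians. The data came from barcoded ribozyme variants transcribed in situ by E. coli RNA polymerase on sequenced MiSeq chips and tracked at 37 °C by a hybridised Cy3 probe. Glucosamine-6-phosphate (40 μM to 10 mM) in HEPES/KCl/Mg(OAc)2 buffer was flowed in.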
AUAAAAGCGCCUGAACUACAGAAAUGUAGUUGCCGAGGAGGAGGUUUAUCGAAUUUUCGGCGGAUGCCUCCAAA [A12U A33C] showed a KM of 7810 ± 2600 µM.
AUAAAAGCGCCUGAACUACAGAAAUGUAGUUGACGAGGAGGGGGUUUAUCGAAUUUUCGGCGGAUGCCUCCAAA [A12U A42G] was tested, and the KM was 1430 ± 760 µM.
Work on AUAAAAGCGCCUAAACUACAGAAAUGUAGUUGACGAGGAGGAGGUUUAUCGAAUUUUCGGCGGAUGCCUCCAAA [A12U G13A] yielded a KM of 12100 ± 5800 µM.
AUAAAAGCGCCUAAACUACAGAAAUGUAGUUGACGAGGAGGAGGUUUAUGGAAUUUUCGGCGGAUGUCUCCAAA [A12U G13A C50G C67U] gave a KM of 21.6 ± 18 µM.
For AUAAAAGCGCCUGAACUACAGAAAUGUAGUUGACGAGGAUGAGGGUUAUCGAAUUUUCGGCGGAUGCCUCCAAA [A12U G40U U45G], the KM was 315 ± 160 µM.
For AUAAAAGCGCCUGAACUACAGAAAUGUAGUUGACGAGGAGGAAGUUUAUCGAAUUUUCGGCGGAUGCCUCCAAA [A12U G43A], the KM was 2010 ± 540 µM.
For AUAAAAGCGCCUGAACUACAGAAAUGUAGUUGACGAGGAGGAGUUUGAUCGAAUUUUCGGCGGAUGCCUCCAAA [A12U G44U U47G], the KM was 1390 ± 880 µM.
With AUAAAAGCGCCUGAACUACAGAAAUGUAGUUGACGAGGAGGAGGUUUAUCGAAUUUUCAGCGGAUGCCUCCAAA [A12U G59A] the KM was 3140 ± 430 µM.
AUAAAAGCGCCUGAACUACAGAAAUGUAGUUGACGAGGAGGAGGUUUAUCGAAUUUUCGACGGAUGCCUCCAAA [A12U G60A] showed a KM of 2040 ± 700 µM.
AUAAAAGCGCCUGAACUACAGAAAUGUAGCUGACGAGGAGGAGGUUUAUCGACUUUUCGGCGGAUGCCUCCAAA [A12U U30C A53C] gave a KM of 555 ± 500 µM.
In the case of AUAAAAGCGCCUGAACUACAGAAAUGUAGUUGACGAGGAGGAGGUUCAUCGAAUUUUCGGCGGAUGCCUCCAAA [A12U U47C], the KM is reported as 1790 ± 840 µM.
Work on AUAAAAGCGCCUGAACUACAGAAAUGUAGUUGACGAGGAGGAGGUUUAUCGAAUGUUCGGCGGAUGCCUCCAAA [A12U U55G] yielded a KM of 104 ± 42 µM.
In the case of AUAAAAGCGCCAAAACUACAGAAAUGUAGUUGACGAGGAGGAGGUUUAUCGAAUUUUCGGCGGAUGCCUUCAAA [G13A C70U], the KM is reported as 2410 ± 870 µM.
Variant AUAAAAGCGCCAAAACUACAGAAAUGUAGUUGACGAGGAGGAGGUUUAUCGAAUUUUCGGCGGAUGCCUCGAAA [G13A C71G] has a KM of 199 ± 110 µM.
Work on AUAAAAGCGCCAAAACUACAGAAAUGUAUUUGACGAGGAGGAGGUUUAUCGAAUUUUCGGCGGAUGCCUCCAAA [G13A G29U] yielded a KM of 777 ± 690 µM.
AUAAAAGCGCCACCACUACAGAAAUGUAGUUGACGAGGAGGAGGAUUAUCGAAUUUUCGGCGGAUGCCUCCAAA [G13C A14C U45A] was tested, and the KM was 4580 ± 3400 µM.
With AUAAAAGCGCCACAAGUACAGAAAUGUAGUUGACGAGGAGGAGGUUUAUCGAAUUUUCGGCGGAUGCCUCCAAA [G13C C16G] the KM was 5230 ± 4100 µM.
In the case of AUAAAAGCGCCACAACUACAGAAAUGUAGUUGACGAGGAGAAGGUUUAUCGAAUUUUCGGCGGAUGCCUCCAAA [G13C G41A], the KM is reported as 20900 ± 2500 µM.
AUAAAAGCGCCACAACUACAGAAAUGUAGUUGACGAGGAGGAGGGUUAUCGAAUUUUCGGCGGAUGCCUCCAAA [G13C U45G] gave a KM of 1530 ± 810 µM.
AUAAAAGCGCCACAACUACAGAAAUGUAGUUGACGAGGAGGAGGUUGAUCGAAUUUUCGGCGGAUGCCUCCAAA [G13C U47G] showed a KM of 163 ± 98 µM.
In the case of AUAAAAGCGCCAUGACUACAGAAAUGUAGUUGACGAGGAGGAGGUUUAUCGAAUUUUCGGCGGAUGCCUCCAAA [G13U A14G], the KM is reported as 2720 ± 1700 µM.
AUAAAAGCGCCAUAACUACAGAAAUGUAAUUGACGAGGAGGAGGUUUAUCGAAUUUUCGGCGGAUGCCUCCAAA [G13U G29A] showed a KM of 6480 ± 1300 µM.
AUAAAAGCGCCAUAACUACAGAAAUGUAGUUGACGAGGAGGAGGUUUAUCGAAUUAUCGGCGGAUGUCUCCAAA [G13U U56A C67U] was tested, and the KM was 4680 ± 3800 µM.
AUAAAAGCGCCAGCACUACAGAAAUGUAGUUGACGAGGAGGAGGUUUAUCGGAUUUGCGGCGGAUGCCUCCAAA [A14C A52G U57G] showed a KM of 964 ± 770 µM.
AUAAAAGCGCCAGCACUACAGAAAUGUAGUUGACGAGGAGGAGGUUUAUCGAGUUUUCGGCGGAUGCCUCCAAA [A14C A53G] gave a KM of 4860 ± 3000 µM.
In the case of AUAAAAGCGCCAGCAUUACAGAAAUGUAGUUGACGAGGAGGAGGUUUAUCGAAUUUUCGGCGGAUGCCUCCAAA [A14C C16U], the KM is reported as 922 ± 250 µM.
AUAAAAGCGCCAGCACUACAGAAAUGUAGUUGACGAGGAGGAGGUUUAUCGAAUUUUCGGCGGAUGCCUCAAAA [A14C C71A] gave a KM of 3250 ± 2700 µM.
With AUAAAAGCGCCAGCACUACAGAAAUGUAGUUAACGAGGAGGAGGUUUAUCGAAUUUUCGGCGGAUGCCUCCAAA [A14C G32A] the KM was 3200 ± 1700 µM.

Variants of: B1
Assay: self-cleavage kobs at 2500 uM GlcN6P; higher = faster cleavage; RNA array
Details: with glucosamine-6-phosphate
Outline: as §1
With AUAAAAGCGCCUGAACUACAGAAAUGUAGUUGACGAGGAGGGGGUUUAUCGAAUUUUCGGCGGAUGCCUCCAAA [A12U A42G] the “self-cleavage kobs at 2500 uM GlcN6P” value was 0.0983 ± 0.06 s⁻¹.
For AUAAAAGCGCCACAACUACAGAAAUGUAGUUGACGAGGAGGAGGGUUAUCGAAUUUUCGGCGGAUGCCUCCAAA [G13C U45G], the “self-cleavage kobs at 2500 uM GlcN6P” value was 2.5e-05 ± 2.4e-05 s⁻¹.
AUAAAAGCGCCACAACUACAGAAAUGUAGUUGACGAGGAGGAGGUUGAUCGAAUUUUCGGCGGAUGCCUCCAAA [G13C U47G] was tested, and the “self-cleavage kobs at 2500 uM GlcN6P” value was 2.7e-05 ± 1.9e-05 s⁻¹.

Variants of: B1
Assay: self-cleavage kobs at 160 uM GlcN6P; higher = faster cleavage; RNA array
Details: with glucosamine-6-phosphate
Outline: as §1
For AUAAAAGCGCCUAAACUACAGAAAUGUAGUUGACGAGGAGGAGGUUUAUCGAAUUUUCGGCGGAUGCCUCCAAA [A12U G13A], the “self-cleavage kobs at 160 uM GlcN6P” value was 2.31e-05 ± 1.6e-05 s⁻¹.
With AUAAAAGCGCCAAAACUACAGAAAUGUAGUUGACGAGGAGGAGGUUUAUCGAAUUUUCGGCGGAUGCCUCGAAA [G13A C71G] the “self-cleavage kobs at 160 uM GlcN6P” value was 1.72e-05 ± 1.5e-05 s⁻¹.

Variants of: B1
Assay: self-cleavage kobs at 40 uM GlcN6P; higher = faster cleavage; RNA array
Details: with glucosamine-6-phosphate
Outline: as §1
AUAAAAGCGCCUGAACUACAGAAAUGUAGCUGACGAGGAGGAGGUUUAUCGACUUUUCGGCGGAUGCCUCCAAA [A12U U30C A53C] was tested, and the “self-cleavage kobs at 40 uM GlcN6P” value was 3.67e-05 ± 2.3e-05 s⁻¹.

Variants of: B1
Assay: self-cleavage kobs at 640 uM GlcN6P; higher = faster cleavage; RNA array
Details: with glucosamine-6-phosphate
Outline: as §1
In the case of AUAAAAGCGCCACCACUACAGAAAUGUAGUUGACGAGGAGGAGGAUUAUCGAAUUUUCGGCGGAUGCCUCCAAA [G13C A14C U45A], the “self-cleavage kobs at 640 uM GlcN6P” value is reported as 3.02e-05 ± 1.8e-05 s⁻¹.
AUAAAAGCGCCACAACUACAGAAAUGUAGUUGACGAGGAGGAGGUUGAUCGAAUUUUCGGCGGAUGCCUCCAAA [G13C U47G] was tested, and the “self-cleavage kobs at 640 uM GlcN6P” value was 2.64e-05 ± 2.1e-05 s⁻¹.

Variants of: B1
Assay: self-cleavage kobs at 10000 uM GlcN6P; higher = faster cleavage; RNA array
Details: with glucosamine-6-phosphate
Outline: as §1
AUAAAAGCGCCACAACUACAGAAAUGUAGUUGACGAGGAGAAGGUUUAUCGAAUUUUCGGCGGAUGCCUCCAAA [G13C G41A] was tested, and the “self-cleavage kobs at 10000 uM GlcN6P” value was 1.87e-05 ± 1.7e-05 s⁻¹.
